# For some assays here: Weaker means in comparison with the reference protein, sequence or condition of that experiment. For some assays here: Construct, isoform or probe ends are uncertain for at least one entry. For some assays here: Negatives hold for the conditions tested.
# Chains of the proteins cited; added tags and fusions are not shown. Lines headed by an entry give the natural chain unless they say otherwise; changes in a name come on top. Residues count along the entry.
# UniProt P02452: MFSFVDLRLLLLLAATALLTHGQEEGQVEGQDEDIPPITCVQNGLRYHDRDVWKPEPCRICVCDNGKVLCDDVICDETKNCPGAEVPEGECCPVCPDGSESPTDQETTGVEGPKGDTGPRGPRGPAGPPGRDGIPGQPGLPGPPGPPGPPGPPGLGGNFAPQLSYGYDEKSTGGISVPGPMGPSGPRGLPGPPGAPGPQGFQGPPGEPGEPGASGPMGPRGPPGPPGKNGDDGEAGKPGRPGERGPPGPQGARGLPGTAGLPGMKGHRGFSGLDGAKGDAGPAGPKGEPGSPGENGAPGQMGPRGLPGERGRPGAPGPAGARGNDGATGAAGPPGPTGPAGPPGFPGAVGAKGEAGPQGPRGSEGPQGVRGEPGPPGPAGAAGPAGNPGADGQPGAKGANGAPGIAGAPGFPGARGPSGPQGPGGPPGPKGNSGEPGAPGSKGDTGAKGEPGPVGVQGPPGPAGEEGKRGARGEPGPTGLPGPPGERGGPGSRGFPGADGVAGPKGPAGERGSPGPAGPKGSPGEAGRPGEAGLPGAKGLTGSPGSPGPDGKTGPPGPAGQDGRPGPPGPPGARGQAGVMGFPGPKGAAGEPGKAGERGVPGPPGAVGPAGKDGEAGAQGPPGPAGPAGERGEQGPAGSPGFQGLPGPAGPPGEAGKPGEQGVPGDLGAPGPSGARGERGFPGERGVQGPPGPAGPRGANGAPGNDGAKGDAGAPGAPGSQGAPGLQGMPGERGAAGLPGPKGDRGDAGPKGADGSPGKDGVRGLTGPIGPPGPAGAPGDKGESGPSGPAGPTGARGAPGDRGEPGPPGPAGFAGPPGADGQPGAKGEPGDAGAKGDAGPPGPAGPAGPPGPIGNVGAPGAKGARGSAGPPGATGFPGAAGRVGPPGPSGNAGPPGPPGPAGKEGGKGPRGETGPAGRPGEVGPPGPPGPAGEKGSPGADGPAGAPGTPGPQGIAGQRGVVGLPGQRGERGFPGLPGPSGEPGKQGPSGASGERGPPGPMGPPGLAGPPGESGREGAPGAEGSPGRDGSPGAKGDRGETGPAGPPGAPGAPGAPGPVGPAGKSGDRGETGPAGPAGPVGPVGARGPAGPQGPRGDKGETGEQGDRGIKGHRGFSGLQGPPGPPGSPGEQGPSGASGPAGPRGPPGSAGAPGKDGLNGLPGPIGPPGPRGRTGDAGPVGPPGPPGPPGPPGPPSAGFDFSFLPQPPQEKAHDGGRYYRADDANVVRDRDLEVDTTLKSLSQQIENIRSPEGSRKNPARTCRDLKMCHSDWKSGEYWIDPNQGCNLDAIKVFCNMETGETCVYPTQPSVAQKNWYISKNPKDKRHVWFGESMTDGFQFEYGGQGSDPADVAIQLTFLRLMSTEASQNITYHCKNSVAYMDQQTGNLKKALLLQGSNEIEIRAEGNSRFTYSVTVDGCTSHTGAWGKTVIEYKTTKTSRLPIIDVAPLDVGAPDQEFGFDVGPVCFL
# UniProt P01241, 27-217: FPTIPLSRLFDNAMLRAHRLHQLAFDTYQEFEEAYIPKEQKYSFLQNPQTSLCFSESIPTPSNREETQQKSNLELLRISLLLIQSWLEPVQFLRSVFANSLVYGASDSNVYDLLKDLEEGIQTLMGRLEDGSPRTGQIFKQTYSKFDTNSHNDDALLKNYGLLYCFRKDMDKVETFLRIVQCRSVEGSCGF
# Target: Type I collagen C-telopeptide (CTx) peptide, 26 aa (Homo sapiens) (UniProt P02452)
# Assay: SELEX
# Details: F and R forms dominated aptamer pool (12 of 38 clones); single-stranded DNA
row,Sequence,selection result
1,ATACGGGAGCCAACACCACCCGTTTTTGATCTAATGAGGATACAATATTCGTCTAGAGCAGGTGTGACGGAT [CTx 2/13/19/20/25/32 F],selected
2,ATCCGTCACACCTGCTCTAGACGAATATTGTATCCTCATTAGATCAAAAACGGGTGGTGTTGGCTCCCGTAT [CTx 2/13/19/20/25/32 R],selected

# Tested on: Type I collagen C-telopeptide (CTx) peptide, 8 aa segment (Homo sapiens)
# Assay: binding assay
# Details: beacon fluorescence; 8-aa segment not giving the response; label: 5' TYE665, 3' Iowa Black RQ; single-stranded DNA; variant of CTx 2/13/19/20/25/32 R
row,Sequence,binding result
1,GGTGGTGTTGGCTCC [CTx 2R-2h 15-base beacon],no binding

# Target: Natural human growth hormone (somatotropin) (Homo sapiens) (UniProt P01241)
# Assay: binding assay
# Details: ELISA-like plate assay; less than r-hGH; single-stranded DNA
row,Sequence,binding result
1,ATACGGGAGCCAACACCACATGACGGGTGACTAAAAGACGAAATCTCCCAATTAAGAGCAGGTGTGACGGAT [hGH aptamer SEQ 377],binds more weakly
2,ATACGGGAGCCAACACCACCTGAGCGCCGGCAGCACTCACTATTTGTCCCCGCAAGAGCAGGTGTGACGGAT [hGH aptamer SEQ 379],binds more weakly
3,ATACGGGAGCCAACACCAGGTTGGCGTCAAAAGAAATAAGGGATATACATTAGAGAGCAGGTGTGACGGAT [hGH aptamer SEQ 345],binds more weakly
4,ATACGGGAGCCAACACCATAAGCAGAGAACTACAAGACGATCCCATATTCCAAAGAGCAGGTGTGACGGAT [hGH aptamer SEQ 343],binds more weakly
5,ATCCGTCACACCTGCTCTAAAACATGGGCCCAATTAGGCGTGATCCAACCCGTCTGGTGTTGGCTCCCGTAT [hGH aptamer SEQ 388],binds more weakly
6,ATCCGTCACACCTGCTCTAGGATTTTTGTTATGTCGGCCACGATGGGGACCCCGTGGTGTTGGCTCCCGTAT [hGH aptamer SEQ 348],binds more weakly
7,ATCCGTCACACCTGCTCTGGGGTGTATCCTTTTATGGATCTGCGAGAATAAGTCTGGTGTTGGCTCCCGTAT [hGH aptamer SEQ 336],binds more weakly
8,ATCCGTCACACCTGCTCTTGGGTGAATCAATTGTTCGTACTCCACGTGATTCTGTGGTGTTGGCTCCCGTAT [hGH aptamer SEQ 338],binds more weakly

# Reference: patent US8658613
